From US20240285753A1
No constants are given. Whether binding was seen depends on the method and setting. Binding calls can cover weak binding; strength is not graded here.

B1: DH1499 (antibody, V domains shown)
VH: QVQLQESGGGLVKPGGSLRLSCAASGFTFSSYSMNWVRQAPGKGLEWVSSISSSSSYIYYADSVKGRFTISRDNAKNSLYLQMNSLRAEDTAVYYCARGIIDYGDYFDYWGQGTLVTVSS
VL: EIVLTQSPDTLSLSPGERATVSCRASQSVGAGYVAWYQQRPGQPPRLLIYGASVRATGIPDRFSGSGSGTDFSLTINRVEPEDFAVYYCQNYASSPPRYTFGQGTKLEIK
B2: DH1495 (antibody, V domains shown)
VH: EVQLVESGGGLVQPGGSLRLSCAASGFTFDNYAMGWVRQPPGKGLEWVSSFSGRGVSTYYADSVKGRFTVSRDSSKNTLFLQMNYLRVEDTAVYYCATYPYDILTGYYGAFDYWGQGALVTVSS
VL: DIQLTQSPSTLSASVGDRVTITCRASQTIDTWLAWYQQKPGKAPKLLIYGASSLQSGVPSRFSASGSGTEFTLTISSLQPDDFAIYYCQQYKDYSTFGQGSKVEFM
B3: DH1501.3 (antibody, V domains shown)
VH: QVQLVQSGAEVKKPGASVRLSCKASGDTFTNEYVQWVRQAPGQGLEWMGLINPSGSGTAFARNFQGRVSMTRDTSTRTVYMDLTSLRYEDTAVYYCARMSRAGTFDLWGQGTMVTVSS
VL: EIVLTQSPDTLSLSLGERATLFCRASETIDSRYLAWYQQKPGRAPRLLMSGTSVRATGIPDRFSGSGSGTDFTLTITRLEPEDFAVYYCQQYGSSPPRYTFGQGTKLAMK
B4: DH1491 (antibody, V domains shown)
VH: QVQLVQSGGGLVQPGGSLRLSCATSGFNFRAFAMSWVRQAPGKGLEWAAVMSGTDDGTYYVESVKGRFTIFRDNSENTVYLQMNSLRADDSAIYYCAKGTLGHCSGVDCYYLDYWGRGTLVTVSS
VL: DIVLTQSPATLSLSPGERATLSCRASQSVGTYVAWYQHKVGQAPRLLIYDASTRATDIPARFSGSGSGTDFTLTITSLEPEDVAIYYCQQRVNLVTFGGGTKLEIK
B5: DH1508 (antibody, V domains shown)
VH: QVQLVESGGGVVQPGKSLKLSCAASGFTFSTYSMHWVRQAPGKGLEWVAIISYDGRNKYYANSVKGRFTISRDNSKNTLYLEINNLRPQDTAVYYCATDASNVEVPGKFAPLDKWGQGTLVTVSS
VL: EIVMTQSPATLSVSPGERATLSCRASQSVSSDLAWYQQKPGQAPRLLIYGATTRATGVPARFSGSGSGAEFTLTISSLQSGDFAVYYCQQYNDWPLITFGQGTRLEIK
B6: DH1497 (antibody, V domains shown)
VH: QVQLVQSGGGLAQPGESLRLSCAASGFTFSSYAMTWVRQAPGKGLEWVSSISGKGENIEYAESVKGRFTISRDNAKNTVDLEMNSLRAEDTATYFCAKHIYGAFIVVPNTLYDALDVWGQATKVTVSS
VL: EIVLTQSPGTLSLSPGERATLSCRASQSVSRNYLAWYQQKPGQAPRILVYDASNRAIGIPDRFSGSGSGTDFTLTISRLEPEDFAVYYCQQYGSSPGTFGQGTRLEIK
B7: DH1496 (antibody, V domains shown)
VH: QVQLQQWGAGLLKPSETLSLTCSFYGGSFSGYCWSWIRQSPGKGLEWIGEINHSGSTNYNPSLKTRVTILIDTSNNQFSLRLSSVTAADTAVYYCARERAIRRCTSTSCYRVGGVAGLDVWGQGTTVSVSS
VL: DIVMTQSPSSLSASVGDRVTITCQASRDIYKYLNWYQQKPGQAPKLLISDASNLETGVPSRFSGSGSGTDFTFTISSLQPEDIAAYYCQQYDNPLITFGQGTRLEIK

Molecular target: OC43 spike (2P) (human coronavirus OC43)
Assay: ELISA, coated spike, mAb titrated

| Binder | binding |
| --- | --- |
| B1 | binds |
| B2 | binds |
| B3 | binds |
| B4 | binds |
| B5 | binds |
| B6 | binds |
| B7 | binds |
